# Laboratory results from the supplement of paper PMC12819154, “High-throughput peptide-centric local stability assay extends protein–ligand identification to membrane proteins, tissues and bacteria” (Nature Structural & Molecular Biology, 2025).
# Chains of the proteins cited; added tags and fusions are not shown. Lines headed by an entry give the natural chain unless they say otherwise; changes in a name come on top.
# UniProt P21361: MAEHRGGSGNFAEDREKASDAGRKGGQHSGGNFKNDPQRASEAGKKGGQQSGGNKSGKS
# UniProt P26608: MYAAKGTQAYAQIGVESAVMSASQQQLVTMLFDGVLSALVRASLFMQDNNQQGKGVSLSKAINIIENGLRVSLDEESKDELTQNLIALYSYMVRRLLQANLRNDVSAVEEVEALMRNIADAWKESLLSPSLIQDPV
# UniProt P28249: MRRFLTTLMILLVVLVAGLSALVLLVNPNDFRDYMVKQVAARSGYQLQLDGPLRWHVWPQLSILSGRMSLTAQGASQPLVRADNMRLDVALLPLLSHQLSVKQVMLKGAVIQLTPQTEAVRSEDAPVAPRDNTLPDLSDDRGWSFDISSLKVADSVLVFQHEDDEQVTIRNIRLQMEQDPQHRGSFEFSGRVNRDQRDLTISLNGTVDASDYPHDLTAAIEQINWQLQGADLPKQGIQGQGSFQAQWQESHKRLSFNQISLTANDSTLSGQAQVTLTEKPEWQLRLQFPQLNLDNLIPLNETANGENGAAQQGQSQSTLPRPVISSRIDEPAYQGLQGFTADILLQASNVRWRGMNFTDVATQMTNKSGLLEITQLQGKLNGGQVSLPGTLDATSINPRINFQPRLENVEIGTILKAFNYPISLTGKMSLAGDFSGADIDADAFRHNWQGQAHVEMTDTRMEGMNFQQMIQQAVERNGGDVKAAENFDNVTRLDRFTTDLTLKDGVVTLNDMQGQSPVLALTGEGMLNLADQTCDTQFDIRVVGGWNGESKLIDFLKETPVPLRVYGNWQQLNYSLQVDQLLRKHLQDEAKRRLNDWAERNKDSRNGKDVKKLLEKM
# UniProt P16689: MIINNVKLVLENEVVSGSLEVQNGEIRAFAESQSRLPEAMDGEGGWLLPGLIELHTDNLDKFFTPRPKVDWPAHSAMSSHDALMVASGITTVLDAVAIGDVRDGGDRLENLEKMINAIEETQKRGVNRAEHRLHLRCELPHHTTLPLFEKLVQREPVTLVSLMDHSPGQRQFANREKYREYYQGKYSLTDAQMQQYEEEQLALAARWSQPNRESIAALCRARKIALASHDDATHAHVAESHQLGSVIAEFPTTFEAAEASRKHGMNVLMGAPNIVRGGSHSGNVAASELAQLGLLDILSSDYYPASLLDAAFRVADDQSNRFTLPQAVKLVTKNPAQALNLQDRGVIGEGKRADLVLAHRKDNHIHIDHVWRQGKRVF
# UniProt P25737: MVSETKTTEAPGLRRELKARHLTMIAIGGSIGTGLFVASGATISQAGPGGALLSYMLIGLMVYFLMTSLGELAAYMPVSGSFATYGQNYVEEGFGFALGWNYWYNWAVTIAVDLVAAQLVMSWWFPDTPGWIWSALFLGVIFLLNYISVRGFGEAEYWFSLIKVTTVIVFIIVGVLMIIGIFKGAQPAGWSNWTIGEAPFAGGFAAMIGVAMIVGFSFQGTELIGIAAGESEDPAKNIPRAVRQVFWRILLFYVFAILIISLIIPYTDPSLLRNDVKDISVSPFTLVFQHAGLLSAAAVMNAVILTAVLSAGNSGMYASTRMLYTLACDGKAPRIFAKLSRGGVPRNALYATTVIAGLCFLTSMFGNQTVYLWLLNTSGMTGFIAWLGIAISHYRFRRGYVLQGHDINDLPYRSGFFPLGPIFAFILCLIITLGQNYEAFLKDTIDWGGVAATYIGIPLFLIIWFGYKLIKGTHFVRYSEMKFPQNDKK
# UniProt P24554: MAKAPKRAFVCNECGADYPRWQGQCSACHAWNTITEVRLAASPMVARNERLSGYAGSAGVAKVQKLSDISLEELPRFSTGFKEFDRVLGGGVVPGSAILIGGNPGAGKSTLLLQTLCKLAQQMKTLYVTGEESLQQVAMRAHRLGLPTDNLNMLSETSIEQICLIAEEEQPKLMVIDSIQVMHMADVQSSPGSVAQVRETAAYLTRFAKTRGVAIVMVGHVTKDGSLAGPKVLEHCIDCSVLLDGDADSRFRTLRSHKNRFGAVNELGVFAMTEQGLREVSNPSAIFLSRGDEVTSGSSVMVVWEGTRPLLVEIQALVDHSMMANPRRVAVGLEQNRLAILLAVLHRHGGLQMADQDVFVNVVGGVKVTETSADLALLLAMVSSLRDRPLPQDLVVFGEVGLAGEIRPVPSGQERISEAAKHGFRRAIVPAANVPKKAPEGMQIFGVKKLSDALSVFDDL
# UniProt P30843: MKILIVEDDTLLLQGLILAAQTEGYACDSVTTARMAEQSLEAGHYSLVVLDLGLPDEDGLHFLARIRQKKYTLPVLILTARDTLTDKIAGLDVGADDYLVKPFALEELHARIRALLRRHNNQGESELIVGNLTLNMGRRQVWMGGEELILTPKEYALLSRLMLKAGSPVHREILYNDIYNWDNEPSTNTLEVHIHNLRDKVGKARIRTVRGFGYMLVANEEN
# UniProt P20099: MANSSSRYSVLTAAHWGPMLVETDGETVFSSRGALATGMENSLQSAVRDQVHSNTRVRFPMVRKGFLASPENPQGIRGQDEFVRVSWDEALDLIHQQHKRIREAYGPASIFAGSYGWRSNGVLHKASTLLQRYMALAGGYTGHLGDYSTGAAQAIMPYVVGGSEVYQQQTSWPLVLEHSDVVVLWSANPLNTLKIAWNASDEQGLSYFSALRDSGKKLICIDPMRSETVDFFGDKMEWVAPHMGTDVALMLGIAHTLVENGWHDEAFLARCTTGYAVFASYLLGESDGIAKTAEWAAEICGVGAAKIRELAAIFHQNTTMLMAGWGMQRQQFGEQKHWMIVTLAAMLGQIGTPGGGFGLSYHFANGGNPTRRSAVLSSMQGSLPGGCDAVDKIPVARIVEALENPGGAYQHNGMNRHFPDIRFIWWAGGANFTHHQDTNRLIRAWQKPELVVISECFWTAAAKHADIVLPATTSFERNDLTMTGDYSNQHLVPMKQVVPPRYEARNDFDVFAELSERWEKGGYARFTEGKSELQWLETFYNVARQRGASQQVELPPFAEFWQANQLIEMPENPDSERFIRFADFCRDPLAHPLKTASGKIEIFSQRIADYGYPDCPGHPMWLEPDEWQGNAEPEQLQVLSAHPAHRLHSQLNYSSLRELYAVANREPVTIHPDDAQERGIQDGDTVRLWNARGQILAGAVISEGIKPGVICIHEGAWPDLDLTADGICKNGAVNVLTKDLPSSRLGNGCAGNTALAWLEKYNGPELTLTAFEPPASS
# UniProt P24242: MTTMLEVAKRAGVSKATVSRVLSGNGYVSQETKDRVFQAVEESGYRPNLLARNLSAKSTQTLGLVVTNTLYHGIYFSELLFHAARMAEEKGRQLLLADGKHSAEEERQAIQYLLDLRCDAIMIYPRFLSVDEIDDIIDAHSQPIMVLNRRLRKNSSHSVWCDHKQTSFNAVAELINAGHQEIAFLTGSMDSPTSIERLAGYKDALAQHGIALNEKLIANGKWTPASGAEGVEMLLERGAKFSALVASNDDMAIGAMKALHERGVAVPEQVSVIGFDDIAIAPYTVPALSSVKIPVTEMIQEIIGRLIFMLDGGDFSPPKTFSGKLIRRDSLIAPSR
# UniProt P30130: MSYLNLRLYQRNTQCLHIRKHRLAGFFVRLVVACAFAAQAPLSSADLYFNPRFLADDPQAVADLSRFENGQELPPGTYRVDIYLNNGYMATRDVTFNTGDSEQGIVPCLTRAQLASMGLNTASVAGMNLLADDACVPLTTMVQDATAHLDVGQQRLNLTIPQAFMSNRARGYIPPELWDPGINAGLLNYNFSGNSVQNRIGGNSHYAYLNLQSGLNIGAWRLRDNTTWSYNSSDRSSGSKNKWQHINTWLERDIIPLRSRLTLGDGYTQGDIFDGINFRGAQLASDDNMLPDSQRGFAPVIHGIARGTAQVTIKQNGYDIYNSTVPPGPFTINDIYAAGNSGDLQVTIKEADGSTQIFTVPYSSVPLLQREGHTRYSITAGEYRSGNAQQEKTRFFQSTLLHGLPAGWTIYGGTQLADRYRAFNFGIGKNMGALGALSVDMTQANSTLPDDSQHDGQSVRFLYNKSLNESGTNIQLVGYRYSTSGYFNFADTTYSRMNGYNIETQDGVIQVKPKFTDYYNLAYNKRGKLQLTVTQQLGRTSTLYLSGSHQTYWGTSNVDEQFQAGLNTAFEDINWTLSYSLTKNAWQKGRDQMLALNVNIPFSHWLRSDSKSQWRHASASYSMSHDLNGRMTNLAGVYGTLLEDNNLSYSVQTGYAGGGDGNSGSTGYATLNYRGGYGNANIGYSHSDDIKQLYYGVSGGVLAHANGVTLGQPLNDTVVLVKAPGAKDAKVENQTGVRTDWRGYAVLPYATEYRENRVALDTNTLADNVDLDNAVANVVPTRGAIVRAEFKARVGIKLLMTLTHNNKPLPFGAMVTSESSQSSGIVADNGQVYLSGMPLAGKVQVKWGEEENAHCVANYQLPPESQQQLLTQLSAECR
# UniProt P25798: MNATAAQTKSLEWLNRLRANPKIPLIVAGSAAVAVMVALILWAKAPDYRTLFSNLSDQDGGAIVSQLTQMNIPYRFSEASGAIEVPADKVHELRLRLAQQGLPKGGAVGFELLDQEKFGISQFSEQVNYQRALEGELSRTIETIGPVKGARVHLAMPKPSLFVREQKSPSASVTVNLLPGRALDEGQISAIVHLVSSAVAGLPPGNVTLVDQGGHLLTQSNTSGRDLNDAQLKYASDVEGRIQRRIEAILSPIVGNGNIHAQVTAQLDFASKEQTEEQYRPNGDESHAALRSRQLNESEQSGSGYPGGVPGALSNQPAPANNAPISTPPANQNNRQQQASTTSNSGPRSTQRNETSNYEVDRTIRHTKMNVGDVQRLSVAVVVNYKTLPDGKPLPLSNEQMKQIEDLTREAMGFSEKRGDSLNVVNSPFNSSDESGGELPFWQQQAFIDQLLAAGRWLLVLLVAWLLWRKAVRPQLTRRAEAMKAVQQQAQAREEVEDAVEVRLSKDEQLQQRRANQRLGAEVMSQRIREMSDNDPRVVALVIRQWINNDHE
# UniProt P24205: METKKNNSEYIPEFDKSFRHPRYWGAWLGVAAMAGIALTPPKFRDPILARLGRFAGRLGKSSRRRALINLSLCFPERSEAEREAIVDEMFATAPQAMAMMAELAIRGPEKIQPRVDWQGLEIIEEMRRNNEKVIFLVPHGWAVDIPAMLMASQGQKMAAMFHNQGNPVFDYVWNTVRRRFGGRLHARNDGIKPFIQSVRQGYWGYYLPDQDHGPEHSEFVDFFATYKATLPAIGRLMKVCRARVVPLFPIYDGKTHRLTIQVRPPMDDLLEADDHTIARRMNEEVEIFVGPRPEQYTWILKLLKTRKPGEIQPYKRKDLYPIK
# UniProt P27127: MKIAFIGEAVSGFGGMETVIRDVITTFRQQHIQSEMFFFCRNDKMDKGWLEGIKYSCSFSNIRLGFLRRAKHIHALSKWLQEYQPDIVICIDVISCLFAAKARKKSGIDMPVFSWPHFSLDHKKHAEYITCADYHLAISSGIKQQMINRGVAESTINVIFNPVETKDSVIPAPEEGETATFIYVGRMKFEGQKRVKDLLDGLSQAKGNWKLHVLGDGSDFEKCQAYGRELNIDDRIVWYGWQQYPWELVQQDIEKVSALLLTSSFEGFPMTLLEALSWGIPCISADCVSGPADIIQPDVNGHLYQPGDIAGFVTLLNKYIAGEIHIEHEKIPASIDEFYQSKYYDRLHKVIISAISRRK
# UniProt P27242: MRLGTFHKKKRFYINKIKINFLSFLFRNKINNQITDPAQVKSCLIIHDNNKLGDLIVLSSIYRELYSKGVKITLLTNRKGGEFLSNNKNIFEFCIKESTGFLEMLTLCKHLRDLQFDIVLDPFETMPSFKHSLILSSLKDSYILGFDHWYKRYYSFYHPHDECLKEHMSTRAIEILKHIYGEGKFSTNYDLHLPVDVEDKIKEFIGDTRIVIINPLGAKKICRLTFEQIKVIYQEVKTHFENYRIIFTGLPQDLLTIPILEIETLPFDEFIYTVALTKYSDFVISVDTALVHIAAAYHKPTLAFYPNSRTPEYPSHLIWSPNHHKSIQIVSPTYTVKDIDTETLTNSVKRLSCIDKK
# UniProt P28911: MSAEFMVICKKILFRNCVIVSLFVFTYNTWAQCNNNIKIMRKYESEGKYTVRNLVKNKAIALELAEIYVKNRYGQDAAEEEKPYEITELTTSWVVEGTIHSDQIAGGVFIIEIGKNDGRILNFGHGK
# UniProt P26459: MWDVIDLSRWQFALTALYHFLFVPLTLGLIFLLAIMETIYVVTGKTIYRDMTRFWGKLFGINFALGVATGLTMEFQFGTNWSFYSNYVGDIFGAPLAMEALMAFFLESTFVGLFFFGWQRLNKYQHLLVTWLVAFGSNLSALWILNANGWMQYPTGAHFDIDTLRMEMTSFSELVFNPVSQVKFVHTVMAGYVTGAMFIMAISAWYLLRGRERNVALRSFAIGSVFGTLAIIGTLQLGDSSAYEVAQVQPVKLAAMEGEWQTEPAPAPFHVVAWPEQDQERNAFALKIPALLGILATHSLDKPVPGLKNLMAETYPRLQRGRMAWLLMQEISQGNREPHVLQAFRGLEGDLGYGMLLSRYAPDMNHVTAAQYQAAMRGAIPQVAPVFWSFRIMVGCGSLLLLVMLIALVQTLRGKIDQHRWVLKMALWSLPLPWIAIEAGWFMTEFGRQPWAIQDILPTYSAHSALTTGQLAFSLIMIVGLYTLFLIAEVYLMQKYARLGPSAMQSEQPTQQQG
# This is a selection; strong and weak results do not stand in their true shares. Small differences around the control level are noise.
# Compound: Nc1ncnc2c1ncn2[C@@H]1O[C@H](COP(=O)(O)OP(=O)(O)OP(=O)(O)O)[C@@H](O)[C@H]1O [adenosine 5'-triphosphate]
# Experiment: log2 fold change of tryptic peptide abundance, ligand vs vehicle (limited proteolysis) (log2 ratio); higher = more trypsin-susceptible (destabilized)
# Settings: ligand concentration: 5 mM; sample: E. coli desalted lysate; replicate design: treated before aliquoting
# Description: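 HT-PELSA: desalted E. coli K-12 BW25113 lysate (with 12 mM MgCl2) incubated with 5 mM ATP (pH 7) or water for 30 min at 25 C, then a 4 min trypsin pulse at 22 C. Peptides were quantified by DIA-MS (4 replicates). Value is the peptide log2 fold change (treated/control); negative = stabilized. Scale: negative = ligand-stabilized region.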
# 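Also: lysate desalted by size exclusion to strip endogenous ATP, peptide intensities built from DIA-NN precursor signals, and peptides missing any value discarded before comparison.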
row,Target,log2 fold change
1,"UniProt P21361 (peptide sequence: KGGQHSGGNFKNDPQR, peptide start residue: 24)",0.171
2,"UniProt P26647 (peptide sequence: AHGTIAEVVNHFK, peptide start residue: 124)",-0.272
3,"UniProt P25526 (peptide sequence: LMTLEQGKPLAEAK, peptide start residue: 93)",-0.327
4,"UniProt P17802 (peptide sequence: STAGAILSLSLGK, peptide start residue: 120)",0.817
5,"UniProt P26608 (peptide sequence: RLLQANLR, peptide start residue: 95)",0.0814
6,"UniProt P16682 (peptide sequence: GLNEQDKLAK, peptide start residue: 300)",0.114
7,"UniProt P28249 (peptide sequence: AAENFDNVTR, peptide start residue: 483)",1.03
8,"UniProt P30847 (peptide sequence: GELEAIQDGVR, peptide start residue: 261)",0.432
9,"UniProt P16689 (peptide sequence: KHGMNVLMGAPNIVR, peptide start residue: 262)",-0.0648
10,"UniProt P24241 (peptide sequence: KYQSVQPTVAK, peptide start residue: 470)",-0.284
11,"UniProt P25737 (peptide sequence: TTEAPGLRR, peptide start residue: 7)",0.107
12,"UniProt P19318 (peptide sequence: SQTVEGVTDTR, peptide start residue: 418)",0.356
13,"UniProt P24554 (peptide sequence: TRGVAIVMVGHVTK, peptide start residue: 210)",0.515
14,"UniProt P30177 (peptide sequence: DPETTAQWIER, peptide start residue: 270)",0.958
15,"UniProt P30843 (peptide sequence: KYTLPVLILTAR, peptide start residue: 70)",0.133
16,"UniProt P24183 (peptide sequence: TASVADIYAPIR, peptide start residue: 265)",-0.839
17,"UniProt P20099 (peptide sequence: VSWDEALDLIHQQHKR, peptide start residue: 85)",-0.245
18,"UniProt P28722 (peptide sequence: VEAGQVQQVR, peptide start residue: 77)",-0.546
19,"UniProt P24242 (peptide sequence: QLLLADGKHSAEEER, peptide start residue: 93)",-0.389
20,"UniProt P21369 (peptide sequence: LIDWCQSR, peptide start residue: 36)",-0.673

# A few values from the results shown:
# Entry of UniProt P26647 (peptide sequence: AHGTIAEVVNHFK, peptide start residue: 124) under log2 fold change: -0.272
# Entry of UniProt P28249 (peptide sequence: AAENFDNVTR, peptide start residue: 483) under log2 fold change: 1.03
# Entry of UniProt P20099 (peptide sequence: VSWDEALDLIHQQHKR, peptide start residue: 85) under log2 fold change: -0.245

# The results go on.

row,Target,log2 fold change
1,"UniProt P30130 (peptide sequence: VENQTGVR, peptide start residue: 731)",-0.35
2,"UniProt P28306 (peptide sequence: GGHTFNTNLASHNK, peptide start residue: 312)",-0.681
3,"UniProt P21829 (peptide sequence: VIALDLDGTLLTPKK, peptide start residue: 5)",0.343
4,"UniProt P27250 (peptide sequence: VVALGSAAQDK, peptide start residue: 69)",-0.108
5,"UniProt P30852 (peptide sequence: GVTITSGLAR, peptide start residue: 137)",0.608
6,"UniProt P21169 (peptide sequence: IHEGESGR, peptide start residue: 403)",-0.909
7,"UniProt P25798 (peptide sequence: FSEASGAIEVPADKVHELR, peptide start residue: 76)",0.596
8,"UniProt P27253 (peptide sequence: NEQIASLER, peptide start residue: 479)",-0.123
9,"UniProt P30744 (peptide sequence: QFTDDLIAR, peptide start residue: 28)",0.276
10,"UniProt P19926 (peptide sequence: YQQEPGVSGPLK, peptide start residue: 215)",-0.278
11,"UniProt P26648 (peptide sequence: ASVWGINGR, peptide start residue: 65)",-0.107
12,"UniProt P23873 (peptide sequence: IYSPTQLANAMK, peptide start residue: 7)",0.222
13,"UniProt P24205 (peptide sequence: RKDLYPIK, peptide start residue: 316)",-0.341
14,"UniProt P27127 (peptide sequence: LHVLGDGSDFEK, peptide start residue: 211)",-0.0392
15,"UniProt P27128 (peptide sequence: NTALLKPNNSNQLR, peptide start residue: 297)",-0.422
16,"UniProt P27242 (peptide sequence: TPEYPSHLIWSPNHHK, peptide start residue: 310)",0.592
17,"UniProt P28911 (peptide sequence: ILNFGHGK, peptide start residue: 120)",-0.0776
18,"UniProt P26459 (peptide sequence: NLMAETYPR, peptide start residue: 309)",0.00571
19,"UniProt P21179 (peptide sequence: SADLLAILK, peptide start residue: 613)",0.362
20,"UniProt P27836 (peptide sequence: KKYPQAQVSR, peptide start residue: 81)",0.46
